Source: the supplement of paper PMC12819154, “High-throughput peptide-centric local stability assay extends protein–ligand identification to membrane proteins, tissues and bacteria” (Nature Structural & Molecular Biology, 2025)
The list shows a part of the results. Small differences around the control level are noise.

Chains of the proteins cited; added tags and fusions are not shown. Lines headed by an entry give the natural chain unless they say otherwise; changes in a name come on top.
UniProt P41226: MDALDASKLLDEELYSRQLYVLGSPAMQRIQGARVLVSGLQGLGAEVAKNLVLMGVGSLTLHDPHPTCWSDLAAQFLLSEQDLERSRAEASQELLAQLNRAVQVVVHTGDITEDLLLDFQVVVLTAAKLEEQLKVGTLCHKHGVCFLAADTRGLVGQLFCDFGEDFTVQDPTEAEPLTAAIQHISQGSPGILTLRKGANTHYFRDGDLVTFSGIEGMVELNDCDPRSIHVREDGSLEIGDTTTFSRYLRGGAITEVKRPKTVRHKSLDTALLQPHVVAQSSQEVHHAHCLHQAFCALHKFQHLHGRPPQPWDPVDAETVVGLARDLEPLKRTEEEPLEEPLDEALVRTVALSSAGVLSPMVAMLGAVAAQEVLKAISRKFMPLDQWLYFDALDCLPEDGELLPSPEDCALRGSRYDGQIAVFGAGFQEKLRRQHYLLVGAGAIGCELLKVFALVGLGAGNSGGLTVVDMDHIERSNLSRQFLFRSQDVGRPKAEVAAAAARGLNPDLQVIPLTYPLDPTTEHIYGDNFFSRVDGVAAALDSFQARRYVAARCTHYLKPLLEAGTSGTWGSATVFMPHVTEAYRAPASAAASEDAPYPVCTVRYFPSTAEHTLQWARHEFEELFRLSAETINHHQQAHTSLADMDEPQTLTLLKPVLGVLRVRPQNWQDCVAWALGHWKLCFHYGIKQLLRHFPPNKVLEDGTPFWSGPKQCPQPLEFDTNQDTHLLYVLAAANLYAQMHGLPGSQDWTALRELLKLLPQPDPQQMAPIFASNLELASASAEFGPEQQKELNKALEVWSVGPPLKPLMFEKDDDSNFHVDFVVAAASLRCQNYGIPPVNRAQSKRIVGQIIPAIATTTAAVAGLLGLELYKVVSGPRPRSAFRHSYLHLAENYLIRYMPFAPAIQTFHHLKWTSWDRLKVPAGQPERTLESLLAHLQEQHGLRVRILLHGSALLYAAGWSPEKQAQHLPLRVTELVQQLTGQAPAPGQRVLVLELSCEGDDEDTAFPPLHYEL
UniProt P35236: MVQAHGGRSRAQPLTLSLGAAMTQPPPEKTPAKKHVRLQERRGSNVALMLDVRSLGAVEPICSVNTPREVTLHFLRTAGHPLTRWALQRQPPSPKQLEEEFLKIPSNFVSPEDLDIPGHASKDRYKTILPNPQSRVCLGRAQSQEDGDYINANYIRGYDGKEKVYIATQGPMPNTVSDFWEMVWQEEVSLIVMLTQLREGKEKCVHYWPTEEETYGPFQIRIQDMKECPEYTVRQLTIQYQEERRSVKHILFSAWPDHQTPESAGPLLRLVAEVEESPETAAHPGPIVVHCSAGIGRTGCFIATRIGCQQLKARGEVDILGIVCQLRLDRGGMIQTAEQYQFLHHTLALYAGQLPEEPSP
UniProt P35269, whole entry: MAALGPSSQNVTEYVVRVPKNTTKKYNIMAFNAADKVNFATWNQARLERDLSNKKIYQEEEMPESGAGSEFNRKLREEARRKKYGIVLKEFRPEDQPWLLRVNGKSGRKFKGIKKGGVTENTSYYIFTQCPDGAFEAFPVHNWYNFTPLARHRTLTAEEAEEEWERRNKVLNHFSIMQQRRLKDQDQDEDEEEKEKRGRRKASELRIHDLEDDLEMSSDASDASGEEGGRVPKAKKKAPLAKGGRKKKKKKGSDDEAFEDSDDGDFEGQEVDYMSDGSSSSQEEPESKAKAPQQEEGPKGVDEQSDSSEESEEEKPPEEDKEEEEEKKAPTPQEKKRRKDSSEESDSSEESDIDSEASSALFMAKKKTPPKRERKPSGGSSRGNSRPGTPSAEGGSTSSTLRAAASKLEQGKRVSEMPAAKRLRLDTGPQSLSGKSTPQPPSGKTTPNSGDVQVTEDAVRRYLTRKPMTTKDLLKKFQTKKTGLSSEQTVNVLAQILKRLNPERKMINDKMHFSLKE
UniProt P30049: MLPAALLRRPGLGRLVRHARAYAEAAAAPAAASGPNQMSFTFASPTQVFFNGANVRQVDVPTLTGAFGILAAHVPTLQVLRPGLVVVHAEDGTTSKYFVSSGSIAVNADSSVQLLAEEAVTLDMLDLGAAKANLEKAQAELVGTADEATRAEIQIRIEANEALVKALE
UniProt P42898: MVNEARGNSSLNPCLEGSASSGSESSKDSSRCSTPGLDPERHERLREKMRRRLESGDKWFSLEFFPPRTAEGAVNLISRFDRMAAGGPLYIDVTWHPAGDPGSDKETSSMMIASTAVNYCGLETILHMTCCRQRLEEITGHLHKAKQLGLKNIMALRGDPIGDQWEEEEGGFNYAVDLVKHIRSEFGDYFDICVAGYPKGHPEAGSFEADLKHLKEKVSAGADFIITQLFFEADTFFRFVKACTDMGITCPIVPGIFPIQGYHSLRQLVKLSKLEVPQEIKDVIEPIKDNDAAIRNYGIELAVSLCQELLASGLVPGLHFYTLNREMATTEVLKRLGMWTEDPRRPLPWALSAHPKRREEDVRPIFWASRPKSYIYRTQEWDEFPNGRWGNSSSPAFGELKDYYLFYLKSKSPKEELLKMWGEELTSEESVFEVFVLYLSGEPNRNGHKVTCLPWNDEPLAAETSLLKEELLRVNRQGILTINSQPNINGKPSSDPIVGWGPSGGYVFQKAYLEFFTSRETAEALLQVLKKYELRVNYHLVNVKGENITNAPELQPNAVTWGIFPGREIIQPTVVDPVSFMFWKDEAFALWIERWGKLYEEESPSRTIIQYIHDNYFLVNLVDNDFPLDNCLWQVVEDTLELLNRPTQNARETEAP
UniProt P40337, whole entry, looked up: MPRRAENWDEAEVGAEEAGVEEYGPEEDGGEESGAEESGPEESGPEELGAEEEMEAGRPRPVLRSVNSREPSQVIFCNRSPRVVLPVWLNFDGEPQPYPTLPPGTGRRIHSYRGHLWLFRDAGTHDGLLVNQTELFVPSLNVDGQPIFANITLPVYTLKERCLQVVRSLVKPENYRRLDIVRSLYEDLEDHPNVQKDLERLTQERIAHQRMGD
UniProt P35637: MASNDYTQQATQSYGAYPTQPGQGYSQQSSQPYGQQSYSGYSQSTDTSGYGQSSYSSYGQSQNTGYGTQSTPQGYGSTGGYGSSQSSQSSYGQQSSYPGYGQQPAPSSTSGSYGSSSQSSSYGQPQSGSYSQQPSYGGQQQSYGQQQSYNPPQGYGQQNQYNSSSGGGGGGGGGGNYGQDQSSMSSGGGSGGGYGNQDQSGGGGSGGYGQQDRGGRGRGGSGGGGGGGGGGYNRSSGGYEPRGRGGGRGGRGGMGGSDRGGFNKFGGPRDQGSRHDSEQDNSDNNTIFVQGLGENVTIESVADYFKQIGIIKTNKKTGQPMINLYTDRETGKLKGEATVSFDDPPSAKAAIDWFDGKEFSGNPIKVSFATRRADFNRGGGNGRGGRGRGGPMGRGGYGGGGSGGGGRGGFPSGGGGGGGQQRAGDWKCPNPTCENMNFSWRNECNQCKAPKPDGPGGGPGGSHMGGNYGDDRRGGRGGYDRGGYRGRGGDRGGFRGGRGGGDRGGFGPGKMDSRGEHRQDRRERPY
UniProt P42773: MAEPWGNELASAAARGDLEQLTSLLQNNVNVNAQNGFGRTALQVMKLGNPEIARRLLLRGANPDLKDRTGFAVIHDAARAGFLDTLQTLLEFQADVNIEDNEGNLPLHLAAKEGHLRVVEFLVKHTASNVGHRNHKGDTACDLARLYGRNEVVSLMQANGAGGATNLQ
UniProt P35221: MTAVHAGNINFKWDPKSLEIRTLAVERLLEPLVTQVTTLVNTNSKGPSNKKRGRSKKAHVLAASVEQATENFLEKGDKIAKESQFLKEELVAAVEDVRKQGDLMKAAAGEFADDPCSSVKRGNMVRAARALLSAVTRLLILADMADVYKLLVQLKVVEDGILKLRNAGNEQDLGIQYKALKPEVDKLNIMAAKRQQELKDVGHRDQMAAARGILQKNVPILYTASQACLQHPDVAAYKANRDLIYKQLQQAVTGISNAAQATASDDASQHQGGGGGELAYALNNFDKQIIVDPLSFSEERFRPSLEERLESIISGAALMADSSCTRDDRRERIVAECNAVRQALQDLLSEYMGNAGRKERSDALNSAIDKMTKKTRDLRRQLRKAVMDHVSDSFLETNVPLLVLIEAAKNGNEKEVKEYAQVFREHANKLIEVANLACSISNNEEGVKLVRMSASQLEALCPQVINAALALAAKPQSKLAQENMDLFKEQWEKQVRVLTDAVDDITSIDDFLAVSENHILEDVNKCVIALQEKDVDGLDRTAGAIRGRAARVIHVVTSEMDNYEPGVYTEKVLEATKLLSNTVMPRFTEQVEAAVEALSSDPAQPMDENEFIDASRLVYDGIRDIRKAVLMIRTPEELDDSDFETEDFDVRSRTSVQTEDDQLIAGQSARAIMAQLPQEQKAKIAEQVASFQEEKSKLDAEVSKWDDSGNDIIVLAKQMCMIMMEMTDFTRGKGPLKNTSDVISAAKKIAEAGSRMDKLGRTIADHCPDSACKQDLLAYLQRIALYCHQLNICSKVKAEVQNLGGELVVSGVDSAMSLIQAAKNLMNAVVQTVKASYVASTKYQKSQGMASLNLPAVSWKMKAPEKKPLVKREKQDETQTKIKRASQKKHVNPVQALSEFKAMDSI
UniProt P38646: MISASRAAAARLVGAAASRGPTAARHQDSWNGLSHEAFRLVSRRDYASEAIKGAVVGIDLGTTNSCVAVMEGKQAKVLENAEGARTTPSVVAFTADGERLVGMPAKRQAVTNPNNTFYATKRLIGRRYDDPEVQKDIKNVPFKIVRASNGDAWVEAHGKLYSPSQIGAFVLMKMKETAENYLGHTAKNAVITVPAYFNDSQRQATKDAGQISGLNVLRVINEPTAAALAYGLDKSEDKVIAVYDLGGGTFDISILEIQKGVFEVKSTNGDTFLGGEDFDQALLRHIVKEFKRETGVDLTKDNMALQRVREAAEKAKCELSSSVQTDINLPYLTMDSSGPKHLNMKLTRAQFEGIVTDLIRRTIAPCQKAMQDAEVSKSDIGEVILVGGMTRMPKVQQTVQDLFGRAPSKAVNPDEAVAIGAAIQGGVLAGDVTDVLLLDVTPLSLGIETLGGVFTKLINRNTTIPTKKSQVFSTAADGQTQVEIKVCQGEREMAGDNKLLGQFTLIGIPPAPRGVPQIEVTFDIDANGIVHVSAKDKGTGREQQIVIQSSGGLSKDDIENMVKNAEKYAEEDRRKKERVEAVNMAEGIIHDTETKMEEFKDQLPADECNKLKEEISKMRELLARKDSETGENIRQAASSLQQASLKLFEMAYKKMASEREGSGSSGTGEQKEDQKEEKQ
UniProt P30307: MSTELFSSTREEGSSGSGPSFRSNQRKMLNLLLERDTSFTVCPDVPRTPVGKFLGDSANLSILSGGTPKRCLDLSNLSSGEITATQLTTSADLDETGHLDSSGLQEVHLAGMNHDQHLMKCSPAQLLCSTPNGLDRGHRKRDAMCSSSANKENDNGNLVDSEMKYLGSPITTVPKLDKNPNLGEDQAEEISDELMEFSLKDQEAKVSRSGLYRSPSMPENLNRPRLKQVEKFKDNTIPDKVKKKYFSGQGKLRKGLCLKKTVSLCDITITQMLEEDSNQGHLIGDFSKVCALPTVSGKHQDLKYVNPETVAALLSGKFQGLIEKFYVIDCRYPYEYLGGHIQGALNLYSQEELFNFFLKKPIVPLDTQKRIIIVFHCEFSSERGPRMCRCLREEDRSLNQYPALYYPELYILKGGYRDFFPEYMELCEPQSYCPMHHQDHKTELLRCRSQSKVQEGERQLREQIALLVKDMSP
UniProt P40425: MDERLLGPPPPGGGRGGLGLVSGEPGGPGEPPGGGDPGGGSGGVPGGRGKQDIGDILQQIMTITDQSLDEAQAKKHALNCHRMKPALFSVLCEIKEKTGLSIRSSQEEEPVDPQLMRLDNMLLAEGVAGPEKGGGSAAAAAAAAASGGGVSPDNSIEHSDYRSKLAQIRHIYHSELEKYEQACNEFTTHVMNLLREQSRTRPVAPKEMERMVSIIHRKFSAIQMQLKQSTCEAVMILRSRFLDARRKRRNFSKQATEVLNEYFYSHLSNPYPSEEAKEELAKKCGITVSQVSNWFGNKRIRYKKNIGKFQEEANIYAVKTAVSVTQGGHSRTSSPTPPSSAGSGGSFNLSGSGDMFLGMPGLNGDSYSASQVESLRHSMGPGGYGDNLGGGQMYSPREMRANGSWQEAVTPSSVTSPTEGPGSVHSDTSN
UniProt P31947: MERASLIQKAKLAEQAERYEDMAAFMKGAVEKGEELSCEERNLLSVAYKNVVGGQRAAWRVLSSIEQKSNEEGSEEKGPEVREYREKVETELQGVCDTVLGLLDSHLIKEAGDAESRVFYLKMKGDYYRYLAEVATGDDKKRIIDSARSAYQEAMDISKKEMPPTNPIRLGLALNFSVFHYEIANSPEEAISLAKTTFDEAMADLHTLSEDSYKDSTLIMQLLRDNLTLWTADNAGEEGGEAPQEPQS

These targets were tested with CN[C@@H]1C[C@H]2O[C@@](C)([C@@H]1OC)n1c3ccccc3c3c4c(c5c6ccccc6n2c5c31)C(=O)NC4 [staurosporine] (assay: log2 fold change of tryptic peptide abundance, ligand vs vehicle (limited proteolysis) (log2 ratio); higher = more trypsin-susceptible (destabilized)). Settings: ligand concentration: 20 uM; sample: K562 cleared lysate; digestion: 4 min, 22 C (HT-PELSA RT4min, Orbitrap Astral).

Row | Target | log2 fold change
1 | UBA7 (peptide sequence: LLDEELYSR, peptide start residue: 9) (UniProt P41226) | -0.0267
2 | MAGEA1 (peptide sequence: FFFPSLR, peptide start residue: 292) (UniProt P43355) | 0.106
3 | PML (peptide sequence: ASPEAASTPR, peptide start residue: 402) (UniProt P29590) | -0.483
4 | PTPN7 (peptide sequence: EVTLHFLR, peptide start residue: 69) (UniProt P35236) | 0.0916
5 | UniProt P36954 (peptide sequence: FCQECNNMLYPKEDKENR, peptide start residue: 16) | 0.339
6 | PHKA2 (peptide sequence: RFSADEQFFSVGQAASSSAHSSK, peptide start residue: 1013) (UniProt P46019) | 0.53
7 | LRPPRC (peptide sequence: SCGSLLPELK, peptide start residue: 129) (UniProt P42704) | 0.146
8 | NF2 (peptide sequence: LSMEIEKEKVEYMEK, peptide start residue: 517) (UniProt P35240) | 0.471
9 | NMT1 (peptide sequence: EKGSETDSAQDQPVK, peptide start residue: 66) (UniProt P30419) | -0.148
10 | WAS (peptide sequence: ADIGAPSGFK, peptide start residue: 236) (UniProt P42768) | 0.167
11 | GTF2F1 (peptide sequence: MINDKMHFSLKE, peptide start residue: 506) (UniProt P35269) | -0.17
12 | UniProt P30049 (peptide sequence: IEANEALVK, peptide start residue: 157) | 0.0372
13 | RPL9 (peptide sequence: TVIVKGPR, peptide start residue: 24) (UniProt P32969) | 0.252
14 | MTHFR (peptide sequence: EEDVRPIFWASRPK, peptide start residue: 359) (UniProt P42898) | -0.0829
15 | VHL (peptide sequence: SLYEDLEDHPNVQKDLER, peptide start residue: 183) (UniProt P40337) | -0.424
16 | FUS (peptide sequence: KTGQPMINLYTDR, peptide start residue: 316) (UniProt P35637) | 0.15
17 | CDKN2C (peptide sequence: NHKGDTACDLAR, peptide start residue: 134) (UniProt P42773) | 1.19
18 | CTNNA1 (peptide sequence: APEKKPLVK, peptide start residue: 863) (UniProt P35221) | 1.29
19 | ETV4 (peptide sequence: LIEPEEVAR, peptide start residue: 365) (UniProt P43268) | -0.195
20 | RDX (peptide sequence: KALELDQER, peptide start residue: 371) (UniProt P35241) | 0.196
21 | EIF2S3 (peptide sequence: LDDPSCPRPECYR, peptide start residue: 91) (UniProt P41091) | -0.222
22 | HSPA9 (peptide sequence: NTTIPTKK, peptide start residue: 461) (UniProt P38646) | 0.211
23 | RBL1 (peptide sequence: DMQPLSPISVHER, peptide start residue: 635) (UniProt P28749) | 0.256
24 | RPL3 (peptide sequence: KAHLMEIQVNGGTVAEKLDWAR, peptide start residue: 177) (UniProt P39023) | -0.173
25 | CDC25C (peptide sequence: IIIVFHCEFSSER, peptide start residue: 371) (UniProt P30307) | 0.359
26 | PBX2 (peptide sequence: TAVSVTQGGHSR, peptide start residue: 320) (UniProt P40425) | 0.194
27 | SFN (peptide sequence: VLSSIEQK, peptide start residue: 61) (UniProt P31947) | -0.133
28 | PBLD (peptide sequence: MKLPIFIADAFTAR, peptide start residue: 1) (UniProt P30039) | 0.626

Reprinted at random: 2 entries already listed, in no set order.
Row | Target | log2 fold change
26 | PBX2 (peptide sequence: TAVSVTQGGHSR, peptide start residue: 320) (UniProt P40425) | 0.194
9 | NMT1 (peptide sequence: EKGSETDSAQDQPVK, peptide start residue: 66) (UniProt P30419) | -0.148
